In PMC12150175:
No constants are given. Whether binding was seen depends on the method and setting. Binding seen in cells or lysates may run through a third protein. A yes stands for co-enrichment or nearness to the bait. Other partners may have been found. Where a sequence is shown, tags or fusion partners need not be part of it.

Protein sequences, listed by entry. Tags and fused reporters are not part of them.
UniProt P35579: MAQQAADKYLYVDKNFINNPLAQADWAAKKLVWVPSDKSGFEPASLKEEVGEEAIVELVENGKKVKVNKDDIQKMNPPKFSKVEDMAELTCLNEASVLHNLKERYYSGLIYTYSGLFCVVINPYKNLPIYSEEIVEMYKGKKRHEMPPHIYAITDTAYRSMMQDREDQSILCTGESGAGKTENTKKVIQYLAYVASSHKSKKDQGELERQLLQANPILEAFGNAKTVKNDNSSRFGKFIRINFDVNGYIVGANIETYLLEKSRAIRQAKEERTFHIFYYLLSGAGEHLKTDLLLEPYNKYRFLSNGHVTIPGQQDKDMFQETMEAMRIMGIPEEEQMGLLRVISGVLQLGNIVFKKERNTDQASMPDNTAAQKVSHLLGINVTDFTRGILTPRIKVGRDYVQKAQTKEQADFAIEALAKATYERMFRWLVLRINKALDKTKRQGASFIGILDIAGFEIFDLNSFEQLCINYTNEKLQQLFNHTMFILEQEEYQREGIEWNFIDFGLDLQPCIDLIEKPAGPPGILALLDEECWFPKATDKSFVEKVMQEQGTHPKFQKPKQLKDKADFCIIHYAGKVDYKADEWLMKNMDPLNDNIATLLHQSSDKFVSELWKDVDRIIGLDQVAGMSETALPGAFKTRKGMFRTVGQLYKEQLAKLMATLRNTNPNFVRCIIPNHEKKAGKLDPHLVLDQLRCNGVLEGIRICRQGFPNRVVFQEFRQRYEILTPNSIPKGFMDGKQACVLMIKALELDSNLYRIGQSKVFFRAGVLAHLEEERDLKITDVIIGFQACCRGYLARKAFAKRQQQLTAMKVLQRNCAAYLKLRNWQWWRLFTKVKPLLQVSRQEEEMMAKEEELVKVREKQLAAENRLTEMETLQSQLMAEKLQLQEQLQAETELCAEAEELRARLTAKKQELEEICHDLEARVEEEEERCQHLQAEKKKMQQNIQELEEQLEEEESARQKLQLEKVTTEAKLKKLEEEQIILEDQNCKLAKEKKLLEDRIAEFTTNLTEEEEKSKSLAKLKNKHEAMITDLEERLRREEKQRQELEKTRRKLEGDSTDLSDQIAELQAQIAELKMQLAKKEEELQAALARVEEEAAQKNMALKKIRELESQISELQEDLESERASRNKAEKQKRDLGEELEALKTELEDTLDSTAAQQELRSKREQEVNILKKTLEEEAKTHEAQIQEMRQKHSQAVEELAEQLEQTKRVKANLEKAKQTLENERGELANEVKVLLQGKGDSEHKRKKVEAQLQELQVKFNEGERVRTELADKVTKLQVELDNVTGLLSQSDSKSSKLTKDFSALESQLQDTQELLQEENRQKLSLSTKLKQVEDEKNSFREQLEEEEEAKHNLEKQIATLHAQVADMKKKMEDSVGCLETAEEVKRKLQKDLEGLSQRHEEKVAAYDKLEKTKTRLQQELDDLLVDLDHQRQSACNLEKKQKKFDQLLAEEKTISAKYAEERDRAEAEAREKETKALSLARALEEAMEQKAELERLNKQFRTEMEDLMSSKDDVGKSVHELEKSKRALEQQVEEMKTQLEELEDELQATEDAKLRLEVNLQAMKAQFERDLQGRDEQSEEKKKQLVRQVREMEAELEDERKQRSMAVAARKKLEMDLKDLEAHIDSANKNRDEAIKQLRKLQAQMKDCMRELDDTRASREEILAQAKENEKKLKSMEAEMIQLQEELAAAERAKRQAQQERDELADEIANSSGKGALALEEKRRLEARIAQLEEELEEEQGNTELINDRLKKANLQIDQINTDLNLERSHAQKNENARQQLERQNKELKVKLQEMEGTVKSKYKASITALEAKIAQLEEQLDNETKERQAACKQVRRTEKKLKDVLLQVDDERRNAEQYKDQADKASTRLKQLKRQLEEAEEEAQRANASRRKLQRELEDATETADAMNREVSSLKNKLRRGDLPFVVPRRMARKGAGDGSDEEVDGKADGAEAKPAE

Molecular target: T1, MOTS-c fused with green fluorescent protein (MOTS-c-GFP) (human)
T1 sequence: MRWQEMGYIFYPRKLR
Experiment: affinity purification with mass spectrometry; MOTS-c-GFP immunoprecipitated from lysates of normoxic and HR-treated HPMVECs stably expressing MOTS-c-GFP; Protein A/G magnetic beads (Pierce MS-Compatible Magnetic IP Kit); LC-MS/MS

| Substance | binding |
| --- | --- |
| MYH9 phosphorylated at Ser1943 (p-MYH9) (from UniProt P35579 1-1960) | binds |
| myosin heavy chain 9 (MYH9) (from UniProt P35579 1-1960) | binds |
